Some results were stated once for a whole list of compounds, not compound by compound. At least one structure is not confirmed: it was looked up by name or label, or the drawing left a doubt.
Biological target: DAT (Rattus norvegicus, UniProt P23977)
Assay: DA clearance in striatum of anesthetized rats by in vivo electrochemistry (high-speed chronoamperometry), Example 8
Set-up: DA clearance in striatum and nucleus accumbens of urethane-anesthetized SD rats; from tissue; host or cells: striatum / nucleus accumbens of living anesthetized SD rats; species or system SD rats
Settings: ~300 nl; 250 μM local application
Procedure: DA clearance in striatum and nucleus accumbens of urethane-anesthetized SD rats was monitored by in vivo electrochemistry using high-speed chrono-amperometry [see 36]. After obtaining reproducible signals for locally applied DA, vehicle or drug was applied slowly over 10-30 sec, then 30-60 sec later the next application of DA was made, with subsequent DA applications at 5-minute intervals for 25-30 min. The DA kinetic data from each animal was analyzed using FAST software (Quanteon). […] These effects were no longer seen 3-5 minutes after lobinaline ejection. They are consistent with simple competitive inhibition of the DAT by lobinaline. […] However, the lobinaline N-oxides produce different effects. Representative data from lobinaline N-oxide, at the same concentration used for lobinaline (1 mM in 250 nl medium) are shown in FIG. 6. […] This is entirely consistent with effects on synaptosomal [3H]DA uptake in vitro above, and probably represents competitive inhibition. However, after exposure to the N-oxide there is a significant and prolonged (c20 min) increase in the first order rate of decay of the DA peak. […]
The uptake rate of locally applied DA (˜100 nl; 200 μM) was measured before and 1 minute after local application of lobinaline (˜250 nl; 1 mM), 403 (˜300 nl; 250 μM) or 419 (˜300 nl; 250 μM) (FIGS. 7, 8, and 9).

Protein sequences, listed by entry. Tags and fused reporters are not part of them.
UniProt P23977, whole entry: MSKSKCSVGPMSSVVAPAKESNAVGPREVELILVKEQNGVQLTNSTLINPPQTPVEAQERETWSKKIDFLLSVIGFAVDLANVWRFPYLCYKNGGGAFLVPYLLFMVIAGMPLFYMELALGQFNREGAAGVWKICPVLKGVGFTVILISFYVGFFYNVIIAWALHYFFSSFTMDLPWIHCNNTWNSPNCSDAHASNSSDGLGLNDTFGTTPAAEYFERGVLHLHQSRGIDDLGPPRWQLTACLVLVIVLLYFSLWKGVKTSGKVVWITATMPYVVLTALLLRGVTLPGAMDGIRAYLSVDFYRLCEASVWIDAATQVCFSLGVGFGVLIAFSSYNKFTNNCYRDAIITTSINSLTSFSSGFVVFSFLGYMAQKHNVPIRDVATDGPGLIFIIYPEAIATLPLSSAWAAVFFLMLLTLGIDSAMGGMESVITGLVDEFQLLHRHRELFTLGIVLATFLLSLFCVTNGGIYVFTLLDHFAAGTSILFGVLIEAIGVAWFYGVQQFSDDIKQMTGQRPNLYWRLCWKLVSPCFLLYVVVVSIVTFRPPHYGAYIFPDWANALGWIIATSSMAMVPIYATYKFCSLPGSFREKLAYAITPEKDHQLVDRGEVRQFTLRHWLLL

SMILES: C[N+]1([O-])CCCC2C(c3ccccc3)C(C3=[N+]([O-])CCCC3)C(c3ccccc3)CC21 (stereo not shown) [lobinaline bi-N-oxide]
- duration of effects on DA signals: > 20 min
